# No constants are given. Whether binding was seen depends on the method and setting. Some entries that bind do so weakly or less than the wild type.
# The chains behind the UniProt entries cited, without tags or fusion partners. Where a name states a change or a piece, a line headed by the entry shows the natural chain unless it says otherwise.
# UniProt Q8NBP7: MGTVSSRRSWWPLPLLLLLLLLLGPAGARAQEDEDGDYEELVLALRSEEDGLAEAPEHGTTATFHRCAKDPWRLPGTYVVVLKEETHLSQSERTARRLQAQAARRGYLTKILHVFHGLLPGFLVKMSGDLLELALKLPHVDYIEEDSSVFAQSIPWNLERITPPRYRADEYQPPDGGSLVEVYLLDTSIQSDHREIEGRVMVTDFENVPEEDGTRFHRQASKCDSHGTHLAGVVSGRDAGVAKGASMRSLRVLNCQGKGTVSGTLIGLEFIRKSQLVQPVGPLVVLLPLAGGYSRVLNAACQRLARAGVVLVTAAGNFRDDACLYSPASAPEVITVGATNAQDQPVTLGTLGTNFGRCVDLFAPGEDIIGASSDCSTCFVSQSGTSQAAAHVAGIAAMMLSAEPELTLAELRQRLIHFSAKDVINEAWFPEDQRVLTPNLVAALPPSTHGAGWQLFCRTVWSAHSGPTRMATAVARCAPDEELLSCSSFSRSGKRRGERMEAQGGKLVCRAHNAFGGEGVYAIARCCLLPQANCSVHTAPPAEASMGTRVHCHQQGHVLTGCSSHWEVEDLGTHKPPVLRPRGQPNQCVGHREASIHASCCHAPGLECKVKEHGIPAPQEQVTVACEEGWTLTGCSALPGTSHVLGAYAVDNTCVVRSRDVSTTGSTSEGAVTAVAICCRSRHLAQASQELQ
# Molecular target: proprotein convertase subtilisin/kexin type 9 (PCSK9) (human) (UniProt Q8NBP7)
# Experiment: phage spot ELISA
row,binding,Binder
1,binds,TAFTSWEEYLDWVGSGQISYLRNA [SEQ ID NO 342]
2,binds,TAFTSWEEYLDWVGSGRCGLAWCVVLVDQ [SEQ ID NO 365]
3,binds,TAFTSWEEYLDWVGSGGVLGVGGMWIA [SEQ ID NO 335]
4,binds,SGCRLPWNLQRIGLPC [SEQ ID NO 392]
5,binds,TAFTSWEEYLDWVGSGDCNLWGDDGKYRLCF [SEQ ID NO 333]

# Molecular target: PCSK9ΔCRDΔhelix (human) (UniProt Q8NBP7)
# Experiment: crystal structure
row,binding,Binder
1,binds,CFIPWNLQRIGLLC (N-terminal acetyl; C-terminal amide; disulfide-constrained macrocycle) [Compound 31]
2,binds,CRLPWNLQRIGLPC (N-terminal acetyl; C-terminal amide; disulfide-constrained macrocycle) [Compound 32]
3,binds,CWNLKRIGSQGC (N-terminal acetyl; C-terminal amide; disulfide-cyclized) [Compound 21]
4,binds,TVFTSWEEYLDWVGSGCWNLKRIGSQGC (N-terminal acetyl; C-terminal amide; disulfide C17-C28) [Compound 2]
5,binds,SGCFIPWNLQRIGLLC (free N-terminus; C-terminal amide; disulfide-constrained macrocycle) [Compound 26]
6,binds,TVFTSWEEYLDWVGSGDLMPWNLVRIGLLR (N-terminal acetyl; C-terminal amide) [Compound 20]
7,binds,SGCRLPWNLQRIGLPC (N-terminal acetyl; C-terminal amide; disulfide-constrained macrocycle) [Compound 30]

# Reference: patent US20190177366A1
